Values from PubChem BioAssay AID1224830 (NIAID, 2016)
This is one part, drawn at random, of about 18,000 reagents. Of all reagents, about 2,900 (16%) were called active. 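Calls are made per well; low scores hint the gene aids the LPS response, high scores that it dampens it.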 Unmarked entries are inactive. Repeated entries: four replicate wells of each siRNA pool.

- Test: 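Regulators of TLR4 signalling towards TNF-alpha in macrophage-like cells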 (primary screen)
- Cells: human THP-1 monocytic leukaemia cells, TNF dual-luciferase reporter clone, PMA-differentiated to macrophage-like cells
- Reagent: siRNA pool against human genes, 50 nM
- Time to read-out: LPS for 4 h, given about 3 days after siRNA transfection
- Treatment: bacterial LPS (TLR4 ligand), 10 ng/ml
- Measurement: 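TNF firefly reporter luminescence divided by renilla, normalised to the plate median, then turned into a robust z-score for each replicate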
- Scale: TNF reporter robust z-score: higher = stronger TNF reporter response to LPS
- Hit rule: 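Each well counts as active if its z-score is over 2.8 or under -1.5; controls are left without a call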

OOEP → TNF reporter robust z-score = 0.11
OOEP → TNF reporter robust z-score = 1.16
OOEP → TNF reporter robust z-score = 1.25
OOEP → TNF reporter robust z-score = -0.15
CDK8 → TNF reporter robust z-score = -1.53 (active)
CDK8 → TNF reporter robust z-score = 0.9
CDK8 → TNF reporter robust z-score = 0.05
CDK8 → TNF reporter robust z-score = -0.7
RPSA → TNF reporter robust z-score = -0.74
RPSA → TNF reporter robust z-score = -0.79
RPSA → TNF reporter robust z-score = -0.65
RPSA → TNF reporter robust z-score = -1.09
ZC3H12B → TNF reporter robust z-score = -0.45
ZC3H12B → TNF reporter robust z-score = -0.5
ZC3H12B → TNF reporter robust z-score = -0.62
ZC3H12B → TNF reporter robust z-score = -1.14
CAMKK1 → TNF reporter robust z-score = -0.92
CAMKK1 → TNF reporter robust z-score = -1.04
CAMKK1 → TNF reporter robust z-score = -0.82
CAMKK1 → TNF reporter robust z-score = -0.69
TMCO1 → TNF reporter robust z-score = 1.62
TMCO1 → TNF reporter robust z-score = 1.31
TMCO1 → TNF reporter robust z-score = 1.78
TMCO1 → TNF reporter robust z-score = 0.72
LYSMD3 → TNF reporter robust z-score = -1.93 (active)
LYSMD3 → TNF reporter robust z-score = -1.88 (active)
LYSMD3 → TNF reporter robust z-score = -2.03 (active)
LYSMD3 → TNF reporter robust z-score = -1.81 (active)
CYBB → TNF reporter robust z-score = -0.49
CYBB → TNF reporter robust z-score = -0.84
CYBB → TNF reporter robust z-score = -0.91
CYBB → TNF reporter robust z-score = -0.3
ACOT7 → TNF reporter robust z-score = -0.2
ACOT7 → TNF reporter robust z-score = 0.42
ACOT7 → TNF reporter robust z-score = -0.1
ACOT7 → TNF reporter robust z-score = 0.65
EPRS1 → TNF reporter robust z-score = 0.52
EPRS1 → TNF reporter robust z-score = 0.85
EPRS1 → TNF reporter robust z-score = -0.18
EPRS1 → TNF reporter robust z-score = 1.62
GBP5 → TNF reporter robust z-score = 0.39
GBP5 → TNF reporter robust z-score = 1.82
GBP5 → TNF reporter robust z-score = -0.08
GBP5 → TNF reporter robust z-score = 2.33
BLID → TNF reporter robust z-score = -0.32
BLID → TNF reporter robust z-score = -0.52
BLID → TNF reporter robust z-score = 0.17
BLID → TNF reporter robust z-score = -0.14
